PubChem BioAssay AID743121 – NCATS – 2013

Assay: 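Partners whose loss is lethal together with topoisomerase I blockade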 (primary screen)
Cell system: MDA-MB-231 cells, a human breast cancer line
Reagent: single siRNA against human genes, 20 nM siRNA (0.8 pmol per well)
Duration: 120 h (drug added 48 h after transfection, read 72 h later)
Treatment: camptothecin 20 nM (about EC30) for 72 h; vehicle 0.1% DMSO in parallel plates
Detection: 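CellTiter-Glo ATP signal, scaled to control siRNA as percent viability; sensitisation given as log2 of untreated divided by camptothecin-treated viability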
Scale: log2 vehicle/camptothecin viability: higher = stronger sensitisation to camptothecin; viability with camptothecin and viability without drug: higher = more viable cells
Call rule: 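Active genes have an RSA gene-level p-value below 0.001, computed from the ratios of their separate siRNAs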
This is one part, drawn at random, of about 26,000 reagents tested. Over the whole deposit, 167 (0.63%) were called active. 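Calls are per gene from RSA p-values that are not deposited; an individual active-marked siRNA can sensitise only weakly.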 The numbers tell different reagents against one gene apart. No sequences are given here.

| target gene | reagent no. | log2 vehicle/camptothecin viability | viability with camptothecin (% of control) | viability without drug (% of control) | activity call |
| --- | --- | --- | --- | --- | --- |
| CD1B | 1 | -0.364 | 38.3 | 29.8 | inactive |
| CD1B | 2 | -0.184 | 101 | 88.6 | inactive |
| CD1B | 3 | -0.0521 | 99.2 | 95.6 | inactive |
| CD1B | 4 | -0.259 | 23.7 | 19.8 | inactive |
| ETFA | 1 | 0.17 | 70.4 | 79.2 | inactive |
| ETFA | 2 | 0.014 | 72.3 | 73 | inactive |
| ETFA | 3 | 0.392 | 11.6 | 15.3 | inactive |
| AMACR | 1 | -0.358 | 113 | 88.1 | inactive |
| AMACR | 2 | -0.2 | 71 | 61.8 | inactive |
| AMACR | 3 | -0.405 | 106 | 79.8 | inactive |
| BFAR | 1 | -0.43 | 82 | 60.9 | inactive |
| BFAR | 2 | -0.271 | 74 | 61.3 | inactive |
| BFAR | 3 | 0.0748 | 45.3 | 47.7 | inactive |
| GPR15 | 1 | -0.655 | 88 | 55.9 | inactive |
| GPR15 | 2 | -0.218 | 71.5 | 61.5 | inactive |
| GPR15 | 3 | -0.324 | 57.3 | 45.7 | inactive |
| GPR15 | 4 | -0.432 | 65 | 48.2 | inactive |
| TRAF4 | 1 | -0.371 | 32.2 | 24.9 | inactive |
| TRAF4 | 2 | 0.235 | 41.4 | 48.7 | inactive |
| TRAF4 | 3 | 0.72 | 26.2 | 43.1 | inactive |
| TRAF4 | 4 | 0.291 | 42.5 | 52 | inactive |
| STS | 1 | -0.146 | 81 | 73.2 | inactive |
| STS | 2 | 0.165 | 66.6 | 74.6 | inactive |
| STS | 3 | -0.0968 | 52.9 | 49.4 | inactive |
| STS | 4 | 0.142 | 89.6 | 98.8 | inactive |
| TNFRSF10A | 1 | 0.766 | 55.6 | 94.5 | inactive |
| TNFRSF10A | 2 | -0.141 | 60.5 | 54.9 | inactive |
| TNFRSF10A | 3 | -0.108 | 76.3 | 70.8 | inactive |
| TNFRSF10A | 4 | -0.0739 | 36.4 | 34.6 | inactive |
| ADGRB3 | 1 | -0.24 | 86.1 | 72.9 | inactive |
| ADGRB3 | 2 | -0.438 | 79.8 | 58.9 | inactive |
| ADGRB3 | 3 | -0.453 | 59.6 | 43.5 | inactive |
| ADGRB3 | 4 | -0.402 | 107 | 81.2 | inactive |
| FBXW4 | 1 | -0.345 | 74.7 | 58.8 | inactive |
| FBXW4 | 2 | -0.381 | 94.6 | 72.7 | inactive |
| FBXW4 | 3 | 0.891 | 32.6 | 60.5 | inactive |
| FBXW4 | 4 | -0.067 | 43.4 | 41.4 | inactive |
| NGFR | 1 | 0.0583 | 89.6 | 93.3 | inactive |
| NGFR | 2 | -0.0462 | 36 | 34.8 | inactive |
| NGFR | 3 | -0.0277 | 103 | 101 | inactive |
| NGFR | 4 | -0.489 | 68.3 | 48.7 | inactive |
| CD1A | 1 | -0.0593 | 103 | 99.3 | inactive |
| CD1A | 2 | 0.103 | 104 | 112 | inactive |
| CD1A | 3 | -0.0321 | 107 | 104 | inactive |
| CD1A | 4 | 0.533 | 49.7 | 72 | inactive |
| BMP4 | 1 | -0.0947 | 14.8 | 13.8 | inactive |
| BMP4 | 2 | 0.0899 | 95.9 | 102 | inactive |
| BMP4 | 3 | -0.101 | 89 | 83 | inactive |
| F13A1 | 1 | -0.203 | 109 | 94.8 | inactive |
| F13A1 | 2 | 0.0231 | 28.9 | 29.4 | inactive |
| F13A1 | 3 | -0.51 | 44.5 | 31.2 | inactive |
| F13A1 | 4 | -0.511 | 110 | 77.3 | inactive |
| PPP4R1 | 1 | -0.276 | 56.9 | 46.9 | inactive |
| PPP4R1 | 2 | -0.353 | 49.9 | 39.1 | inactive |
| PPP4R1 | 3 | 0.0494 | 94.2 | 97.5 | inactive |
| PPP4R1 | 4 | -0.436 | 96.1 | 71 | inactive |
| PPOX | 1 | -0.372 | 77 | 59.5 | inactive |
| PPOX | 2 | 0.127 | 39.5 | 43.2 | inactive |
| PPOX | 3 | -0.285 | 21.8 | 17.9 | inactive |
| PPOX | 4 | -0.472 | 79 | 56.9 | inactive |
| ANLN | 1 | -0.164 | 126 | 113 | inactive |
| ANLN | 2 | -0.367 | 84.2 | 65.3 | inactive |
| ANLN | 3 | -0.299 | 50.9 | 41.4 | inactive |
| ANLN | 4 | -0.368 | 84.5 | 65.5 | inactive |
| STEAP4 | 1 | -0.163 | 82.8 | 73.9 | inactive |
| STEAP4 | 2 | -0.197 | 58.7 | 51.2 | inactive |
| STEAP4 | 3 | -0.104 | 80.4 | 74.8 | inactive |
| IRF1 | 1 | -0.442 | 80.8 | 59.4 | inactive |
| IRF1 | 2 | -0.204 | 60.1 | 52.2 | inactive |
| IRF1 | 3 | -0.367 | 50.1 | 38.9 | inactive |
| IRF1 | 4 | -0.268 | 55.4 | 46 | inactive |

Targets above whose target name begins with I or i:
| target gene | reagent no. | log2 vehicle/camptothecin viability | viability with camptothecin (% of control) | viability without drug (% of control) | activity call |
| --- | --- | --- | --- | --- | --- |
| IRF1 | 1 | -0.442 | 80.8 | 59.4 | inactive |
| IRF1 | 2 | -0.204 | 60.1 | 52.2 | inactive |
| IRF1 | 3 | -0.367 | 50.1 | 38.9 | inactive |
| IRF1 | 4 | -0.268 | 55.4 | 46 | inactive |
